Measurements from publication PMC3921104.
These are yes or no findings as the source states them, for the method shown. In cells and extracts the contact can be indirect. Some results given as binding are weak or reduced against the parent protein; the word gives no strength. For some assays here: Tags and fused reporters may be left off the sequences shown. Each block holds one molecule with its values, some of them ahead of it.

Sequences of proteins named here, by UniProt entry; tags and fusion partners are left off. A change or cut given only in a name is not applied to a line headed by its entry. A line that says so, or that is headed by a name, gives the form on record, which may keep a tag or linker.
UniProt P23696: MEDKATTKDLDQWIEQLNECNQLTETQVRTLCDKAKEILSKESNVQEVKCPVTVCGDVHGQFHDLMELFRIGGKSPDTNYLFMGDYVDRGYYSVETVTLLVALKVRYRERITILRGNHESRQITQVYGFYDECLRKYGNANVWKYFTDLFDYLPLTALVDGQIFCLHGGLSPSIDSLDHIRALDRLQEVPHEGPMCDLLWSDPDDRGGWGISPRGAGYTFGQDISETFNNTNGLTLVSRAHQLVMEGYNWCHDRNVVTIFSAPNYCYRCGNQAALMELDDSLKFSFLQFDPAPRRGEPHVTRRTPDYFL
Orb2A, untagged, expressed in S2 cells (Q9VSR3-2, form named): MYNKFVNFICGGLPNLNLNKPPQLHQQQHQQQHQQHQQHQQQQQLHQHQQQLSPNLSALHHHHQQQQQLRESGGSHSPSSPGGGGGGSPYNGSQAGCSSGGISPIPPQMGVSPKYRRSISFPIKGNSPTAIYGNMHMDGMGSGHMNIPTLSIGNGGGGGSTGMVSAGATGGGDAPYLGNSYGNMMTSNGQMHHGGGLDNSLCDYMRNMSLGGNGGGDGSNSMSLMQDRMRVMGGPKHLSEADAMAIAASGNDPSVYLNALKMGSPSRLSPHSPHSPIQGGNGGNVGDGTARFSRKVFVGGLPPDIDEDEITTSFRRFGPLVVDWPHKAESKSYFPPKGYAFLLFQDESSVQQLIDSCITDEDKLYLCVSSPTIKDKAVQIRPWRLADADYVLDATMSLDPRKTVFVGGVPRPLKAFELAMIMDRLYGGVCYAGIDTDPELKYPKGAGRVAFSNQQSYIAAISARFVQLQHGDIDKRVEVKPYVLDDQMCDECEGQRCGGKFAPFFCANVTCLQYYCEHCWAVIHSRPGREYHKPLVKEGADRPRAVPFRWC

Columns and labels:
[1] = target: HA-tagged Mts, the catalytic subunit of PP2A (Drosophila melanogaster) (UniProt P23696); experiment: co-IP; Orb2 proteins coexpressed with HA-tagged Mts; complex immunopurified with anti-HA antibodies
[2] = target: T1, FLAG-tagged flotilin (Flo2), S2 cells (Drosophila melanogaster) (UniProt O61492); experiment: co-IP; S2 cells; FLAG-tagged candidate proteins coexpressed with untagged Orb2, immunoprecipitated with anti-FLAG antibodies, Western blotted with anti-Orb2 antibody
T1 sequence: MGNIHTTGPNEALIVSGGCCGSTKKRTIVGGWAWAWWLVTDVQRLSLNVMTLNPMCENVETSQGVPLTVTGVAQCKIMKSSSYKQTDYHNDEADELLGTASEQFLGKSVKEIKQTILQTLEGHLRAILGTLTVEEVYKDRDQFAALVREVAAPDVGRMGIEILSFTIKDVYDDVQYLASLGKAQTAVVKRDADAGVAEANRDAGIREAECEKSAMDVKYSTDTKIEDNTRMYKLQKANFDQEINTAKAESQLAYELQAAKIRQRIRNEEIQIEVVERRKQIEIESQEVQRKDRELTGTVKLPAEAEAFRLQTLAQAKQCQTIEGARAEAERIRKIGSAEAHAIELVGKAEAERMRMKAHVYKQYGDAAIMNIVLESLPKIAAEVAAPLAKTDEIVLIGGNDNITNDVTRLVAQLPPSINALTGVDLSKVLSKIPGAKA

[3] = target: T2, flag-tagged mouse Tob1 (mouse) (UniProt Q61471); experiment: co-IP; HEK293T cell extracts transfected with HA-tagged CPEB3 or ApCPEB together with flag-tagged mTob1 or mTob2
T2 sequence: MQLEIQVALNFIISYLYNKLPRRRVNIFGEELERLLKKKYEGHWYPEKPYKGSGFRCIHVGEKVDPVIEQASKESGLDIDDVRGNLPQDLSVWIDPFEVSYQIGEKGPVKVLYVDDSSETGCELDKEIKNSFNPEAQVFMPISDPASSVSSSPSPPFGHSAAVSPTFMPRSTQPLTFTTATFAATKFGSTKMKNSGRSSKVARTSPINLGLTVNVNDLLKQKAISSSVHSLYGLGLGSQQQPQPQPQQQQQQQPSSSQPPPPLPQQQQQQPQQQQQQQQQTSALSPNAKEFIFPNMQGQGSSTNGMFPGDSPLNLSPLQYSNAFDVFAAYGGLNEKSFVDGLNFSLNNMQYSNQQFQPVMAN

[4] = target: T3, flag-tagged mouse Tob2 (mouse) (UniProt Q9JM55); experiment: as above
T3 sequence: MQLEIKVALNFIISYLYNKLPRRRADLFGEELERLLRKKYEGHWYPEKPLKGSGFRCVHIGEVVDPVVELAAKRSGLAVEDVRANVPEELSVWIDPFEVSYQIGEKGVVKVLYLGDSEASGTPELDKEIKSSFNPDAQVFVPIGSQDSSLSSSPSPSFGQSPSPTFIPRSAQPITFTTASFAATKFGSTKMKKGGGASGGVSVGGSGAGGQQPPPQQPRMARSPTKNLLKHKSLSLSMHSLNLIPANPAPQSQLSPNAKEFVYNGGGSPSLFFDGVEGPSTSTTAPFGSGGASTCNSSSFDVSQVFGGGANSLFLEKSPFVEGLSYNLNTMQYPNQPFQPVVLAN

binding [1]: binds
Molecule: Orb2B expressed in S2 cells (tag not told) (from UniProt Q9VSR3-1 1-704)

binding [1]: binds
Molecule: Orb2A expressed in S2 cells (tag not told) (from UniProt Q9VSR3-2 1-551)

binding [2]: binds
Molecule: Orb2A, untagged, expressed in S2 cells (from UniProt Q9VSR3-2 1-551)

binding [3]: binds
binding [4]: binds
B1: HA-tagged mouse CPEB3 (protein, UniProt Q7TN99 1-716)
chain: MQDDLLMDKSKTQPQSQQQQRQQQQQQQQLQPEPGAAEAPSTPLSSEIPKPEDSSAVPALSPASAPPAPNGPDKMQMESPLLPGLSFHQPPQQPPPPQEPTAPGASLSPSFGSTWSTGTTNAVEDSFFQGITPVNGTMLFQNFPHHVNPVFGGTFSPQIGLAQTQHHQQPPPPAPQPPQPAQPPQAQPSQQRRSPASPSQAPYAQRSAAAYGHQPIMTSKPSSSSAVAAAAAAAAASSASSSWNTHQSVNAAWSAPSNPWGGLQAGRDPRRAVGVGVGVGVGVPSPLNPISPLKKPFSSNVIAPPKFPRAAPLTSKSWMEDNAFRTDNGNNLLPFQDRSRPYDTFNLHSLENSLMDMIRTDHEPLKGKHYPNSGPPMSFADIMWRNHFAGRMGINFHHPGTDNIMALNTRSYGRRRGRSSLFPFEDAFLDDSHGDQALSSGLSSPTRCQNGERVERYSRKVFVGGLPPDIDEDEITASFRRFGPLVVDWPHKAESKSYFPPKGYAFLLFQEESSVQALIDACLEEDGKLYLCVSSPTIKDKPVQIRPWNLSDSDFVMDGSQPLDPRKTIFVGGVPRPLRAVELAMIMDRLYGGVCYAGIDTDPELKYPKGAGRVAFSNQQSYIAAISARFVQLQHNDIDKRVEVKPYVLDDQMCDECQGTRCGGKFAPFFCANVTCLQYYCEYCWASIHSRAGREFHKPLVKEGGDRPRHVPFRWS
